# Experimental data taken from PubChem BioAssay AID1345086 (University of Iowa High-Throughput Screening Core (UIHTS), 2018).
# Some of the results follow.
# Experiment: EMT-state selective cytotoxicity in co-culture – imaging, PC-3E GFP, TEM4-18 mCherry, primary screen (AID 1345086);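 also: cells exposed to compound for 72 h before imaging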
# Conditions: PC-3E GFP / TEM4-18 mCherry co-culture, imaging cell counts, at 1 µM
structure (smiles),measurement,setting,value
CN(CCCl)CCCl,normalised cell number,measured here: epithelial PC-3E GFP cell survival,0.43
same,normalised cell number,measured here: mesenchymal TEM4-18 mCherry cell survival,0.47
